Test results: the supplement of paper PMC10032668
The other results are listed elsewhere or left out. Only hits are listed; about a third recur on repeated control peptides.

Sequences of proteins named here, by UniProt entry; tags and fusion partners are left off.
C3, P01024, UniProt P01024, whole entry: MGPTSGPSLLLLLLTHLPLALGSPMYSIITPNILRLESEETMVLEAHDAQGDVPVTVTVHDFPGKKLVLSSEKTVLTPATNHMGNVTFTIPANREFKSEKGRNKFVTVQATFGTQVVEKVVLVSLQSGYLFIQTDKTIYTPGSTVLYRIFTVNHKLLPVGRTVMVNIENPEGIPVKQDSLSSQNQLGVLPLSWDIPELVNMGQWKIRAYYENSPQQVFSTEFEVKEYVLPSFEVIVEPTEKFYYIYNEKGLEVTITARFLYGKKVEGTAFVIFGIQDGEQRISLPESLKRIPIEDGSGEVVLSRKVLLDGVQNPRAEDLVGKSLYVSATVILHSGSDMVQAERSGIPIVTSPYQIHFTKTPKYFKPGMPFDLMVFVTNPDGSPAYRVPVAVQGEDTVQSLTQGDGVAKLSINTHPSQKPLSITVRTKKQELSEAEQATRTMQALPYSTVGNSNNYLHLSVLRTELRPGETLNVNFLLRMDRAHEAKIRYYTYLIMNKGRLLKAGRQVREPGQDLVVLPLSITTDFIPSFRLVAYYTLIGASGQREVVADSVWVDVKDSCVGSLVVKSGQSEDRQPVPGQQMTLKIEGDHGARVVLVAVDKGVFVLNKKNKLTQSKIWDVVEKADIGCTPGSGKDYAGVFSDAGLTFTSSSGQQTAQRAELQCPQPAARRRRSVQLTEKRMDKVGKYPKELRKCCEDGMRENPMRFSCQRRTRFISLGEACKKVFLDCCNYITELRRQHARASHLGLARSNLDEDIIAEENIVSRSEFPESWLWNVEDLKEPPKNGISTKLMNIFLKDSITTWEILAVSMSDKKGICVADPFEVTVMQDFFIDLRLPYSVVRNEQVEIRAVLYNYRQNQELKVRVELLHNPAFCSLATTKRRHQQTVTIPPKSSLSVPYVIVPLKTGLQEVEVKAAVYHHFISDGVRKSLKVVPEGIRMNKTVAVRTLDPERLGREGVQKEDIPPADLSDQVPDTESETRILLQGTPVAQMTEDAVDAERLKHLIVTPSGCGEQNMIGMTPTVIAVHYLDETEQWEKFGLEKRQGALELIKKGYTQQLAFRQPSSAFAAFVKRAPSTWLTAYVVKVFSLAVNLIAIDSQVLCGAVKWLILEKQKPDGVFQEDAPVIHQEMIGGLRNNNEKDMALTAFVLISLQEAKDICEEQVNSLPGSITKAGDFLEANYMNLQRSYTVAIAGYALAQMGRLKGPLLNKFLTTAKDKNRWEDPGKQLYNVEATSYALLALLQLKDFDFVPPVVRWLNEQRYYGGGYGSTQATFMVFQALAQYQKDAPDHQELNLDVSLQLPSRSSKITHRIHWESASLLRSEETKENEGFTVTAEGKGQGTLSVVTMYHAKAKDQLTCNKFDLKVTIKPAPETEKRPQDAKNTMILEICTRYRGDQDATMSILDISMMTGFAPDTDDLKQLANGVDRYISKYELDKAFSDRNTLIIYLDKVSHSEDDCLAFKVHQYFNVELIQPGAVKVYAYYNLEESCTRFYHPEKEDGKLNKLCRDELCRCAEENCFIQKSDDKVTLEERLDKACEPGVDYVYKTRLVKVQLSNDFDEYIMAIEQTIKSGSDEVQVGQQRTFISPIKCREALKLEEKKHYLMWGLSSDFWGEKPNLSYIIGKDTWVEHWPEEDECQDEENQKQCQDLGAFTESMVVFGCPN
EIF4B, P23588, UniProt P23588, whole entry: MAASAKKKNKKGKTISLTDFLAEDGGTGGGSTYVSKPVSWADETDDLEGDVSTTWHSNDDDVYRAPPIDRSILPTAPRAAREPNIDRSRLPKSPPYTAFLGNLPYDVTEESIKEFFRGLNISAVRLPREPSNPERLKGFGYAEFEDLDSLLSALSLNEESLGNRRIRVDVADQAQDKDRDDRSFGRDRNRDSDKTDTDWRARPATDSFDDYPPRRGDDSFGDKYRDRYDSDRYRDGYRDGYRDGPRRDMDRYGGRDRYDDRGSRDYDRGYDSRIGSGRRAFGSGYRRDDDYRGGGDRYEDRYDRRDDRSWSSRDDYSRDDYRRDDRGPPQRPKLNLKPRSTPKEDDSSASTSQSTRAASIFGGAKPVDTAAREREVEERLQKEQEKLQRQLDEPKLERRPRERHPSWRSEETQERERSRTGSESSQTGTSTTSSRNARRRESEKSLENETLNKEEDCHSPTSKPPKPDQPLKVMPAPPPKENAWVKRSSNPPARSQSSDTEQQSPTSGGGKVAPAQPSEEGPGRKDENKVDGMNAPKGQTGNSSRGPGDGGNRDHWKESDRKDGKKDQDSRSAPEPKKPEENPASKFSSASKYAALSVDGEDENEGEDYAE
HBS1L, Q9Y450, UniProt Q9Y450, whole entry: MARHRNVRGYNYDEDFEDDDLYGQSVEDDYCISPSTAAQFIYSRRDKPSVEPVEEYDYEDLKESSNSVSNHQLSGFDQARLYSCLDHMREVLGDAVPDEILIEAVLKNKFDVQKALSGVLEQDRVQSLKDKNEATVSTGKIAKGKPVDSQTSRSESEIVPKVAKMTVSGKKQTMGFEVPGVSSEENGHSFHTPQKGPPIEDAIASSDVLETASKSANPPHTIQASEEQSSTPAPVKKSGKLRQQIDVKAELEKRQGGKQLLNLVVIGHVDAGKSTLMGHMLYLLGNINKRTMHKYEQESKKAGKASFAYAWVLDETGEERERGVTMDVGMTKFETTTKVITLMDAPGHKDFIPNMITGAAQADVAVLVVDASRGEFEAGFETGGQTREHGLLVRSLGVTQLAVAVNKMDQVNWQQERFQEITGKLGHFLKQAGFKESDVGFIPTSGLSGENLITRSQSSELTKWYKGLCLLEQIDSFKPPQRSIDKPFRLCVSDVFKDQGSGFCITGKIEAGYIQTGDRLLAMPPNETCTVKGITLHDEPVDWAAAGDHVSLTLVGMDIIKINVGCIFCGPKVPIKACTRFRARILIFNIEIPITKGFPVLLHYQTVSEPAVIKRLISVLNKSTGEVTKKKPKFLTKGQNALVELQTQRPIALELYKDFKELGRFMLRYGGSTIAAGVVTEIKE
CAMK2D, Q13557, UniProt Q13557, whole entry: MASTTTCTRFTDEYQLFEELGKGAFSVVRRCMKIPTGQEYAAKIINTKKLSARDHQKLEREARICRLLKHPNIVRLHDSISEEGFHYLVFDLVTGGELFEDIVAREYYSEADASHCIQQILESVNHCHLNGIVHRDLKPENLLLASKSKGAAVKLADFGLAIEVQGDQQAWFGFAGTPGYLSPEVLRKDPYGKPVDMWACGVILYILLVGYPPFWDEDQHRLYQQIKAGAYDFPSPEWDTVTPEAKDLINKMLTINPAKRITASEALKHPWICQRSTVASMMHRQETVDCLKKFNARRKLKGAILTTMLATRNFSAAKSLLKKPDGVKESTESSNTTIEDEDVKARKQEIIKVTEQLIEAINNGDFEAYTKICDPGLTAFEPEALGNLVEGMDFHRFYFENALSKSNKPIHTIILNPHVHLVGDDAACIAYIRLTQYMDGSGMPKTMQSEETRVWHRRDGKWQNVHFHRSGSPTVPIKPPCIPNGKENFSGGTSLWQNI
MAPK1, P28482, UniProt P28482, whole entry: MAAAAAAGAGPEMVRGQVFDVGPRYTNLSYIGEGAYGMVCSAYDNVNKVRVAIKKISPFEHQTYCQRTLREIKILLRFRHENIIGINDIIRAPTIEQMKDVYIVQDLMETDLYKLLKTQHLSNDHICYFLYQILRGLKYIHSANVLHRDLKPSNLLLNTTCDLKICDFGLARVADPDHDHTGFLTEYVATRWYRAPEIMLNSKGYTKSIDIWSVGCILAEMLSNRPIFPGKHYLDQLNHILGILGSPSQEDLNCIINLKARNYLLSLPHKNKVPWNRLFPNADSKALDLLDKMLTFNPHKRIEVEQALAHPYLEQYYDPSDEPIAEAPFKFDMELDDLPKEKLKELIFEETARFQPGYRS
PAXIP1, Q6ZW49, UniProt Q6ZW49, whole entry: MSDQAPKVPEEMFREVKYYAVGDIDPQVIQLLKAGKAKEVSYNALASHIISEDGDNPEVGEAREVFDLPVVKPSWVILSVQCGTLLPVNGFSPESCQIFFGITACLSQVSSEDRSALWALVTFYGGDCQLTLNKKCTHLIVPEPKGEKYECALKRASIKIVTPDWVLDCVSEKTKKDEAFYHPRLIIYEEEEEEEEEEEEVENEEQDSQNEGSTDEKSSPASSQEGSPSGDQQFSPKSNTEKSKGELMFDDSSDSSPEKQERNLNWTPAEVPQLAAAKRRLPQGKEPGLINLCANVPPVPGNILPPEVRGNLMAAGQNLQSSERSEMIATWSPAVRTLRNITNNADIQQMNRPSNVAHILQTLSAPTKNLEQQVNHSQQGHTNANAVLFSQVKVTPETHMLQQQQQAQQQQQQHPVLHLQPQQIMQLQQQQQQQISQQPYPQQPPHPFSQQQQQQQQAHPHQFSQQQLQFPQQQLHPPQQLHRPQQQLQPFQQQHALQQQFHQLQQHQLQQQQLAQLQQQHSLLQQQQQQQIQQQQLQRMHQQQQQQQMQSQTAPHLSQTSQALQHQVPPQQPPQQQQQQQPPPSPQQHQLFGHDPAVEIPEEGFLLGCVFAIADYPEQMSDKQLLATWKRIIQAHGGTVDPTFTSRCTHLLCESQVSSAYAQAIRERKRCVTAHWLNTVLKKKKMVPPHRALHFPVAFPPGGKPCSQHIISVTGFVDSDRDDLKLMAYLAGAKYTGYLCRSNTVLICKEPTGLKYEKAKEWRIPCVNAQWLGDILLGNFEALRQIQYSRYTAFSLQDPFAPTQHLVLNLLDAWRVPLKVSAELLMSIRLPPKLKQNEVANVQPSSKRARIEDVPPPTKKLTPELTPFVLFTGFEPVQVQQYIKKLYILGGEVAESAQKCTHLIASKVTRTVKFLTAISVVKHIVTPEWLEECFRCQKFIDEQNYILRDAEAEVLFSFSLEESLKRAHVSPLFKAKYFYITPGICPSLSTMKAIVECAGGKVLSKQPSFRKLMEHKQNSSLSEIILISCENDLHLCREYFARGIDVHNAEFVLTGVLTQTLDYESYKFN
SDC2, P34741, UniProt P34741, whole entry: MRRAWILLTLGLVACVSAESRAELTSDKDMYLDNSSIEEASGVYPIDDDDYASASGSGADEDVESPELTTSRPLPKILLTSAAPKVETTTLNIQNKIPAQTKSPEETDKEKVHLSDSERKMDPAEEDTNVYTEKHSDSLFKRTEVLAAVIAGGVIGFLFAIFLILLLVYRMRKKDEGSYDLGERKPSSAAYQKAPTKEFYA
FABP5, Q01469, UniProt Q01469, whole entry: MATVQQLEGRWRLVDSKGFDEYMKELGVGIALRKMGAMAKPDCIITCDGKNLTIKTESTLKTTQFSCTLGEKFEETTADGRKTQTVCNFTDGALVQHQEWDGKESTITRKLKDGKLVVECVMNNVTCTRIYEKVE

Experiments:
Assay in all cases: PRISMA enrichment of interactor (LFQ) in peptide spot vs all other peptide spots (log2 fold change); higher = stronger / more specific binding of the interactor to the peptide
ARF6, P62330 = target: ARF6, P62330
Protocol: (§1)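 PRISMA: 15-aa overlapping tiles (offset 8 aa) of 60 microproteins, plus SOS1/GLUT1 control peptides, were spot-synthesized on cellulose membranes in triplicate. Membranes were incubated with benzonase-treated HEK293T lysate, and bound proteins were identified by LC-MS/MS with LFQ. Enrichment is the log2 fold change of each protein in one spot versus all other spots. Only interactors passing the significance cutoff are listed.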

C3, P01024 = target: C3, P01024
Protocol: as §1

CERS2, Q96G23 = target: CERS2, Q96G23
Protocol: as §1

CNIH4, Q9P003 = target: CNIH4, Q9P003
Protocol: as §1

DCAF1, Q9Y4B6 = target: DCAF1, Q9Y4B6
Protocol: as §1

GTF2E1, P29083 = target: GTF2E1, P29083
Protocol: as §1

ITCH, Q96J02 = target: ITCH, Q96J02
Protocol: as §1

MT-ATP6, P00846 = target: MT-ATP6, P00846
Protocol: as §1

OSTC, Q9NRP0 = target: OSTC, Q9NRP0
Protocol: as §1

PDCD4, Q53EL6 = target: PDCD4, Q53EL6
Protocol: as §1

PSAT1, Q9Y617 = target: PSAT1, Q9Y617
Protocol: as §1

RER1, O15258 = target: RER1, O15258
Protocol: as §1

SHROOM3, Q8TF72 = target: SHROOM3, Q8TF72
Protocol: as §1

SSR3, Q9UNL2 = target: SSR3, Q9UNL2
Protocol: as §1

SURF4, O15260 = target: SURF4, O15260
Protocol: as §1

XPO4, Q9C0E2 = target: XPO4, Q9C0E2
Protocol: as §1

ARGLU1, Q9NWB6 = target: ARGLU1, Q9NWB6
Protocol: as §1

BTAF1, O14981 = target: BTAF1, O14981
Protocol: as §1

CDK11A, Q9UQ88 = target: CDK11A, Q9UQ88
Protocol: as §1

CLTB, P09497 = target: CLTB, P09497
Protocol: as §1

CMAS, Q8NFW8 = target: CMAS, Q8NFW8
Protocol: as §1

COPS5, Q92905 = target: COPS5, Q92905
Protocol: as §1

EIF4B, P23588 = target: EIF4B, P23588
Protocol: as §1

FAM120A, Q9NZB2 = target: FAM120A, Q9NZB2
Protocol: as §1

HBS1L, Q9Y450 = target: HBS1L, Q9Y450
Protocol: as §1

HIP1R, O75146 = target: HIP1R, O75146
Protocol: as §1

LAMTOR4, Q0VGL1 = target: LAMTOR4, Q0VGL1
Protocol: as §1

LASP1, Q14847 = target: LASP1, Q14847
Protocol: as §1

MRPL54, Q6P161 = target: MRPL54, Q6P161
Protocol: as §1

NCOA5, Q9HCD5 = target: NCOA5, Q9HCD5
Protocol: as §1

NOLC1, Q14978 = target: NOLC1, Q14978
Protocol: as §1

NUP188, Q5SRE5 = target: NUP188, Q5SRE5
Protocol: as §1

PABPN1, Q86U42 = target: PABPN1, Q86U42
Protocol: as §1

PDIA4, P13667 = target: PDIA4, P13667
Protocol: as §1

PEF1, Q9UBV8 = target: PEF1, Q9UBV8
Protocol: as §1

PEX11B, O96011 = target: PEX11B, O96011
Protocol: as §1

PREX2, Q70Z35 = target: PREX2, Q70Z35
Protocol: as §1

RAD51AP1, Q96B01 = target: RAD51AP1, Q96B01
Protocol: as §1

RANBP6, O60518 = target: RANBP6, O60518
Protocol: as §1

RCC1, P18754 = target: RCC1, P18754
Protocol: as §1

RIF1, Q5UIP0 = target: RIF1, Q5UIP0
Protocol: as §1

SPTAN1, Q13813 = target: SPTAN1, Q13813
Protocol: as §1

TBC1D10B, Q4KMP7 = target: TBC1D10B, Q4KMP7
Protocol: as §1

VARS, P26640 = target: VARS, P26640
Protocol: as §1

WDR18, Q9BV38 = target: WDR18, Q9BV38
Protocol: as §1

WDR74, Q6RFH5 = target: WDR74, Q6RFH5
Protocol: as §1

ARCN1, P48444 = target: ARCN1, P48444
Protocol: as §1

ATXN7L3B, Q96GX2 = target: ATXN7L3B, Q96GX2
Protocol: as §1

AURKAIP1, Q9NWT8 = target: AURKAIP1, Q9NWT8
Protocol: as §1

BCAP31, P51572 = target: BCAP31, P51572
Protocol: as §1

CAMK2D, Q13557 = target: CAMK2D, Q13557
Protocol: as §1

CKMT1A, P12532 = target: CKMT1A, P12532
Protocol: as §1

EFTUD2, Q15029 = target: EFTUD2, Q15029
Protocol: as §1

HP, P00738 = target: HP, P00738
Protocol: as §1

LSM14A, Q8ND56 = target: LSM14A, Q8ND56
Protocol: as §1

MAPK1, P28482 = target: MAPK1, P28482
Protocol: as §1

METAP1, P53582 = target: METAP1, P53582
Protocol: as §1

MRPL40, Q9NQ50 = target: MRPL40, Q9NQ50
Protocol: as §1

NKRF, O15226 = target: NKRF, O15226
Protocol: as §1

PAXIP1, Q6ZW49 = target: PAXIP1, Q6ZW49
Protocol: as §1

POLR2D, O15514 = target: POLR2D, O15514
Protocol: as §1

[1] = substrate: PPIF, P30405
Protocol: as §1

RAB21, Q9UL25 = target: RAB21, Q9UL25
Protocol: as §1

RBM27, Q9P2N5 = target: RBM27, Q9P2N5
Protocol: as §1

RMDN3, Q96TC7 = target: RMDN3, Q96TC7
Protocol: as §1

SDC2, P34741 = target: SDC2, P34741
Protocol: as §1

THOC3, Q96J01 = target: THOC3, Q96J01
Protocol: as §1

WDR5, P61964 = target: WDR5, P61964
Protocol: as §1

ARPC4, P59998 = target: ARPC4, P59998
Protocol: as §1

DCXR, Q7Z4W1 = target: DCXR, Q7Z4W1
Protocol: as §1

DERPC, P0CG12 = target: DERPC, P0CG12
Protocol: as §1

FABP5, Q01469 = target: FABP5, Q01469
Protocol: as §1

PRPF8, Q6P2Q9 = target: PRPF8, Q6P2Q9
Protocol: as §1

RRP1B, Q14684 = target: RRP1B, Q14684
Protocol: as §1

SART3, Q15020 = target: SART3, Q15020
Protocol: as §1

SHMT1, P34896 = target: SHMT1, P34896
Protocol: as §1

SNX9, Q9Y5X1 = target: SNX9, Q9Y5X1
Protocol: as §1

WDR44, Q5JSH3 = target: WDR44, Q5JSH3
Protocol: as §1

## LWFLSPASRTAGPAA [TBX5-AS1]
ARF6, P62330
  PRISMA enrichment of interactor (log2): 3.78
C3, P01024
  PRISMA enrichment of interactor (log2): 6.97
CERS2, Q96G23
  PRISMA enrichment of interactor (log2): 3.97
CNIH4, Q9P003
  PRISMA enrichment of interactor (log2): 3.8
DCAF1, Q9Y4B6
  PRISMA enrichment of interactor (log2): 12.4
GTF2E1, P29083
  PRISMA enrichment of interactor (log2): 3.92
ITCH, Q96J02
  PRISMA enrichment of interactor (log2): 4.19
MT-ATP6, P00846
  PRISMA enrichment of interactor (log2): 4.57
OSTC, Q9NRP0
  PRISMA enrichment of interactor (log2): 4.56
PDCD4, Q53EL6
  PRISMA enrichment of interactor (log2): 5.67
PSAT1, Q9Y617
  PRISMA enrichment of interactor (log2): 4.79
RER1, O15258
  PRISMA enrichment of interactor (log2): 5.4
SHROOM3, Q8TF72
  PRISMA enrichment of interactor (log2): 9.86
SSR3, Q9UNL2
  PRISMA enrichment of interactor (log2): 4.61
SURF4, O15260
  PRISMA enrichment of interactor (log2): 4.55
XPO4, Q9C0E2
  PRISMA enrichment of interactor (log2): 4.46

## RSQDIGRSGAALETL [SNHG8]
ARGLU1, Q9NWB6
  PRISMA enrichment of interactor (log2): 4.49
BTAF1, O14981
  PRISMA enrichment of interactor (log2): 4.09
CDK11A, Q9UQ88
  PRISMA enrichment of interactor (log2): 6.83
CLTB, P09497
  PRISMA enrichment of interactor (log2): 4.97
CMAS, Q8NFW8
  PRISMA enrichment of interactor (log2): 4.41
COPS5, Q92905
  PRISMA enrichment of interactor (log2): 5.07
EIF4B, P23588
  PRISMA enrichment of interactor (log2): 5.36
FAM120A, Q9NZB2
  PRISMA enrichment of interactor (log2): 4.25
HBS1L, Q9Y450
  PRISMA enrichment of interactor (log2): 4.21
HIP1R, O75146
  PRISMA enrichment of interactor (log2): 5.76
LAMTOR4, Q0VGL1
  PRISMA enrichment of interactor (log2): 3.89
LASP1, Q14847
  PRISMA enrichment of interactor (log2): 4.94
MRPL54, Q6P161
  PRISMA enrichment of interactor (log2): 3.86
NCOA5, Q9HCD5
  PRISMA enrichment of interactor (log2): 5.8
NOLC1, Q14978
  PRISMA enrichment of interactor (log2): 6.51
NUP188, Q5SRE5
  PRISMA enrichment of interactor (log2): 6.58
PABPN1, Q86U42
  PRISMA enrichment of interactor (log2): 4.61
PDIA4, P13667
  PRISMA enrichment of interactor (log2): 5.66
PEF1, Q9UBV8
  PRISMA enrichment of interactor (log2): 4.69
PEX11B, O96011
  PRISMA enrichment of interactor (log2): 7.17
PREX2, Q70Z35
  PRISMA enrichment of interactor (log2): 4.3
RAD51AP1, Q96B01
  PRISMA enrichment of interactor (log2): 6.87
RANBP6, O60518
  PRISMA enrichment of interactor (log2): 6.18
RCC1, P18754
  PRISMA enrichment of interactor (log2): 4.4
RIF1, Q5UIP0
  PRISMA enrichment of interactor (log2): 4.98
SPTAN1, Q13813
  PRISMA enrichment of interactor (log2): 8.01
TBC1D10B, Q4KMP7
  PRISMA enrichment of interactor (log2): 8.32
VARS, P26640
  PRISMA enrichment of interactor (log2): 4.35
WDR18, Q9BV38
  PRISMA enrichment of interactor (log2): 4.46
WDR74, Q6RFH5
  PRISMA enrichment of interactor (log2): 4.32

## PLPDSASFQKEDVVS [PSMB8-AS1]
ARCN1, P48444
  PRISMA enrichment of interactor (log2): 4.87
ATXN7L3B, Q96GX2
  PRISMA enrichment of interactor (log2): 5.52
AURKAIP1, Q9NWT8
  PRISMA enrichment of interactor (log2): 4.62
BCAP31, P51572
  PRISMA enrichment of interactor (log2): 4.47
CAMK2D, Q13557
  PRISMA enrichment of interactor (log2): 8.05
CKMT1A, P12532
  PRISMA enrichment of interactor (log2): 3.98
EFTUD2, Q15029
  PRISMA enrichment of interactor (log2): 4.59
HP, P00738
  PRISMA enrichment of interactor (log2): 5.3
LSM14A, Q8ND56
  PRISMA enrichment of interactor (log2): 4.35
MAPK1, P28482
  PRISMA enrichment of interactor (log2): 6.77
METAP1, P53582
  PRISMA enrichment of interactor (log2): 4.55
MRPL40, Q9NQ50
  PRISMA enrichment of interactor (log2): 4.8
NKRF, O15226
  PRISMA enrichment of interactor (log2): 6.89
PAXIP1, Q6ZW49
  PRISMA enrichment of interactor (log2): 8.45
POLR2D, O15514
  PRISMA enrichment of interactor (log2): 5.71
[1]
  PRISMA enrichment of interactor (log2): 6.15
RAB21, Q9UL25
  PRISMA enrichment of interactor (log2): 3.99
RBM27, Q9P2N5
  PRISMA enrichment of interactor (log2): 4.36
RIF1, Q5UIP0
  PRISMA enrichment of interactor (log2): 6.93
RMDN3, Q96TC7
  PRISMA enrichment of interactor (log2): 7.79
SDC2, P34741
  PRISMA enrichment of interactor (log2): 4.81
THOC3, Q96J01
  PRISMA enrichment of interactor (log2): 5.2
WDR5, P61964
  PRISMA enrichment of interactor (log2): 5.2

## MMAVTSQLNGKLKSP [CTC-471J1.11]
ARF6, P62330
  PRISMA enrichment of interactor (log2): 3.96
ARPC4, P59998
  PRISMA enrichment of interactor (log2): 3.9
DCXR, Q7Z4W1
  PRISMA enrichment of interactor (log2): 7.87
DERPC, P0CG12
  PRISMA enrichment of interactor (log2): 4.51
FABP5, Q01469
  PRISMA enrichment of interactor (log2): 4.59
PRPF8, Q6P2Q9
  PRISMA enrichment of interactor (log2): 4.56
RRP1B, Q14684
  PRISMA enrichment of interactor (log2): 4.82
SART3, Q15020
  PRISMA enrichment of interactor (log2): 4.51
SHMT1, P34896
  PRISMA enrichment of interactor (log2): 6.68
SNX9, Q9Y5X1
  PRISMA enrichment of interactor (log2): 5.82
WDR44, Q5JSH3
  PRISMA enrichment of interactor (log2): 8.12
WDR5, P61964
  PRISMA enrichment of interactor (log2): 5.84
